Assay results from article PMC9199882 (Clinical and Translational Science, 2022).

Experiment: Midazolam and 1-hydroxymidazolam plasma PK, DDI study stage 1
Settings: human, po, 4 mg

Compound: Cc1ncc2n1-c1ccc(Cl)cc1C(c1ccccc1F)=NC2 [Midazolam, midazolam]
- half-life: 162 min
